Measurements reported in PubChem BioAssay AID743454 (Peter MacCallum Cancer Centre, 2014)

Aim: 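Search for knock-downs that restore vorinostat killing in resistant colon cancer cells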 (primary screen)
Cell system: human HCT116-VR colon cancer cells, selected for vorinostat resistance
Reagent: siRNA pool against human genes, 40 nM siRNA pool
Timing: vorinostat for 24 h, read-out about 72 h after transfection
Challenge: vorinostat at 2.5 µM final
Measurement: 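Cell viability by CellTiter-Fluor and caspase 3/7 activity by luminescence, each scaled to mock wells per plate, duplicates averaged, then robust z-scored over all plates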
Reading the numbers: viability robust z-score: higher = more viable cells than screen typical; caspase robust z-score: higher = more caspase 3/7 activity than screen typical
Call rule: 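Hits are knock-downs in viability class RV1/RV2 or caspase class CA1/CA2, excluding ones that killed cells in the no-drug cell-count arm; hits then retested with single siRNAs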
This is an unselected part of about 18,000 reagents tested. 450 of them (2.5%) were called active. 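Single biological run; no consistent viability z cut-off exists, so the class columns, not z-scores, define the calls.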

The first 2 entries as a preview:
| gene knocked down | viability hit class | caspase hit class | viability robust z-score | caspase robust z-score | activity call |
| --- | --- | --- | --- | --- | --- |
| CFAP126 (GeneID 257177) | no change | no change | 0.82 | 1.14 | inactive |
| ATP11C (GeneID 286410) | no change | no change | 0.3 | -1.25 | inactive |

Results, from the first entry:
| gene knocked down | viability hit class | caspase hit class | viability robust z-score | caspase robust z-score | activity call |
| --- | --- | --- | --- | --- | --- |
| CFAP126 (GeneID 257177) | no change | no change | 0.82 | 1.14 | inactive |
| ATP11C (GeneID 286410) | no change | no change | 0.3 | -1.25 | inactive |
| ADAMTS9 (GeneID 56999) | no change | no change | 0.94 | -0.6 | inactive |
| BCKDHB (GeneID 594) | no change | no change | 0.27 | -0.64 | inactive |
| PLXND1 (GeneID 23129) | no change | no change | 1.6 | 2.25 | inactive |
| DMAC1 (GeneID 90871) | no change | no change | 0.47 | -0.61 | inactive |
| OR52B4 (GeneID 143496) | no change | no change | -0.12 | 0.98 | inactive |
| ANKRD34A (GeneID 284615) | no change | no change | 0.25 | -0.44 | inactive |
| FGF19 (GeneID 9965) | no change | no change | 0.45 | -0.34 | inactive |
| EXOC3L1 (GeneID 283849) | no change | no change | -1.68 | -0.51 | inactive |
| PAQR9 (GeneID 344838) | no change | no change | -0.8 | 4.66 | inactive |
| HDX (GeneID 139324) | no change | no change | -0.66 | -1.23 | inactive |
| PRM3 (GeneID 58531) | no change | no change | -0.35 | -0.86 | inactive |
| PYY (GeneID 5697) | no change | no change | -1.64 | 1.23 | inactive |
| FARP1 (GeneID 10160) | no change | no change | -0.92 | 1.42 | inactive |
| ATP6AP2 (GeneID 10159) | no change | no change | -0.42 | -1.44 | inactive |
| SLC22A10 (GeneID 387775) | no change | no change | -0.25 | -0.7 | inactive |
| AIG1 (GeneID 51390) | no change | no change | -0.46 | 0.1 | inactive |
| PC (GeneID 5091) | no change | no change | 0.06 | -1.12 | inactive |
| STX5 (GeneID 6811) | no change | no change | -0.04 | -0.48 | inactive |
| NTRK2 (GeneID 4915) | no change | no change | 0.29 | 0.18 | inactive |
| AIFM3 (GeneID 150209) | no change | no change | -0.7 | 0.58 | inactive |
| OR4D6 (GeneID 219983) | no change | no change | -0.62 | 5.09 | inactive |
| P2RY6 (GeneID 5031) | no change | no change | 0.76 | 0.88 | inactive |
| DYNC2LI1 (GeneID 51626) | no change | no change | -0.62 | 2.5 | inactive |
| COG7 (GeneID 91949) | no change | no change | 0.24 | -0.2 | inactive |
| LRP5 (GeneID 4041) | no change | no change | 0.94 | 1.84 | inactive |
| BPIFA1 (GeneID 51297) | no change | no change | 0.53 | -0.97 | inactive |
| TRIP11 (GeneID 9321) | no change | no change | 0.32 | 0.19 | inactive |
| TMED7 (GeneID 51014) | no change | no change | -0.3 | -0.9 | inactive |
| CCAR2 (GeneID 57805) | no change | no change | -0.84 | 2.14 | inactive |
| IL5RA (GeneID 3568) | no change | no change | 0.55 | -0.62 | inactive |
| YWHAB (GeneID 7529) | no change | no change | -1.32 | -1.01 | inactive |
| CCSER2 (GeneID 54462) | no change | no change | -0.76 | -0.02 | inactive |
| TASL (GeneID 80231) | no change | no change | -0.83 | 0.85 | inactive |
| TTLL12 (GeneID 23170) | no change | no change | -1.96 | 1.08 | inactive |
| IST1 (GeneID 9798) | no change | no change | 0.52 | -0.9 | inactive |
| FOXJ2 (GeneID 55810) | no change | no change | 0.38 | -0.55 | inactive |
| C2CD3 (GeneID 26005) | no change | no change | -1.23 | -0.65 | inactive |
| ARV1 (GeneID 64801) | no change | no change | 1.17 | -0.45 | inactive |
| TRIM55 (GeneID 84675) | no change | no change | 0.1 | 3.96 | inactive |
| PIGO (GeneID 84720) | no change | no change | -1.29 | 1.55 | inactive |
| SLC25A22 (GeneID 79751) | no change | no change | 0.25 | 1.57 | inactive |
| PCMTD2 (GeneID 55251) | no change | no change | 0.58 | -0.52 | inactive |
| IFNA17 (GeneID 3451) | no change | no change | 0.17 | -0.28 | inactive |
| INPP1 (GeneID 3628) | no change | no change | 0.98 | 0.57 | inactive |
| TRIM29 (GeneID 23650) | no change | no change | 1.24 | 0.77 | inactive |
| TDP1 (GeneID 55775) | no change | no change | -0.86 | 0.26 | inactive |
| RIPK4 (GeneID 54101) | no change | no change | 0.06 | -0.37 | inactive |
| YEATS2 (GeneID 55689) | no change | no change | 0.26 | 0.22 | inactive |
| UBE3B (GeneID 89910) | no change | no change | -0.51 | 2.29 | inactive |
| WWTR1 (GeneID 25937) | no change | no change | -0.34 | 0.86 | inactive |
| B3GALT4 (GeneID 8705) | no change | no change | -1.31 | -0.92 | inactive |
| MRC2 (GeneID 9902) | no change | no change | -2.79 | 4.26 | inactive |
| RABIF (GeneID 5877) | no change | no change | 1.04 | -0.45 | inactive |
| IFI30 (GeneID 10437) | no change | no change | 1.12 | 0.66 | inactive |
| ADGRG2 (GeneID 10149) | no change | no change | -0.92 | 0.53 | inactive |
